According to publication PMC5529009:
These are yes or no findings as the source states them, for the method shown. For some of these results: Binding seen in cells or lysates may run through a third protein. Some binding calls cover weakened binding; strength is not graded here. Tags and fused reporters may be left off the sequences shown.

Amino acid sequences for entries named in this document (tags omitted).
UniProt Q9C9K7: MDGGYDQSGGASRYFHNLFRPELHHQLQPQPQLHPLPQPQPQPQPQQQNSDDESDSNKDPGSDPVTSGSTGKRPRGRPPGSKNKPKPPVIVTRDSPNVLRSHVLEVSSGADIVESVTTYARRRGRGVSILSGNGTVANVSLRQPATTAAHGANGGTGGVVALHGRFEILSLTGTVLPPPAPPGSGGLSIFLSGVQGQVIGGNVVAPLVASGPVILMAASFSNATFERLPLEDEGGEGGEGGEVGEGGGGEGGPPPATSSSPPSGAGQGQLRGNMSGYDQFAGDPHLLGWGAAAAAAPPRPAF
UniProt Q9S7C9: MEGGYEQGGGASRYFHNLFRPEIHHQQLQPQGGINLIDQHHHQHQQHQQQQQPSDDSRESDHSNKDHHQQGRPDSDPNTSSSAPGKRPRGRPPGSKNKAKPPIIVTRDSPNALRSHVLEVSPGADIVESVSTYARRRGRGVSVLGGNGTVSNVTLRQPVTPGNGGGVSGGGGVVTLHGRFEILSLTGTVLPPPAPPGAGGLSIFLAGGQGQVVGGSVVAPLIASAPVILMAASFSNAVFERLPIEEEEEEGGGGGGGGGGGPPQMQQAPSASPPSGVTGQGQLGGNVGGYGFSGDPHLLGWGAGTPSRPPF

How the values were obtained:
[1] = molecular target: SUPPRESSOR OF PHYTOCHROME B-4 #3 (SOB3)/AHL29, GAL4 fusion for yeast two-hybrid (Arabidopsis thaliana) (UniProt Q9C9K7); assay: two-hybrid; screen of SOB3 against a prey library composed only of approximately 100 cDNAs encoding chromatin remodelers and chromatin modifiers in Arabidopsis
[2] = molecular target: ESCAROLA (ESC)/AHL27, GAL4 fusion for yeast two-hybrid (Arabidopsis thaliana) (UniProt Q9S7C9); assay: two-hybrid; BD Matchmaker system; pGBKT7 (GAL4 BD) and pGADT7 (GAL4 AD) fusions co-transformed into yeast strain pJG69-4a; growth on selective medium (-LWHA) or b-Gal activity with ONPG
[3] = molecular target: SUPPRESSOR OF PHYTOCHROME B-4 #3 (SOB3)/AHL29, GAL4 fusion for yeast two-hybrid (Arabidopsis thaliana) (UniProt Q9C9K7); assay: as above
[4] = molecular target: SOB3-nYFP (Arabidopsis thaliana) (UniProt Q9C9K7); assay: split reporter; BiFC; nYFP and cYFP fusions transiently coexpressed in Arabidopsis protoplasts; YFP fluorescence by confocal microscopy

Row | binding [1] | binding [2] | binding [3] | binding [4] | Binder
1 | binds | no binding | binds |  | ACTIN-RELATED PROTEIN 4 (ARP4), GAL4 fusion for yeast two-hybrid (protein, UniProt Q84M92 1-441) MYGGDEVSAIVVDLGSHTCKAGYAGEDAPKAVFPSVIGAVDGVEAMDVDVDSTKTNSNSEDSKTESEKEKSKRKLYVGSQAMSYRRDHMEVLSPIKDGIVSDWDLVDNIWEHAFKSCLMIDPTEHPMLLAEPPLNTQQQREKAAELMFEKYKVPALFMAKNPVLTSFATGRATSLVVDCGGGSTTISPVHDGYVLQKAVVSSPLGGEFLTDCLLKSLESKGIKIRPRYSFKRKEVRAGEFQVEDVDIPDTTESYKLFCQRMIVGDIKDSICRVPDTPYDDKSYSNIPTTSYELPDGQTLEIGADRFKVPDVMFNPSIVQTIPGMEKYAEMIPSVRGLPHMVMESINKCDVDIRRELYSSILLAGGTSSMQQLKERLEKDLIEESPHSARVKVLASGNTTERRFSVWIGGSILASLGSFQQMWFSKSEYEEHGASYIQRKCP
2 |  |  |  | binds | ARP4-cYFP (protein, UniProt Q84M92 1-441) MYGGDEVSAIVVDLGSHTCKAGYAGEDAPKAVFPSVIGAVDGVEAMDVDVDSTKTNSNSEDSKTESEKEKSKRKLYVGSQAMSYRRDHMEVLSPIKDGIVSDWDLVDNIWEHAFKSCLMIDPTEHPMLLAEPPLNTQQQREKAAELMFEKYKVPALFMAKNPVLTSFATGRATSLVVDCGGGSTTISPVHDGYVLQKAVVSSPLGGEFLTDCLLKSLESKGIKIRPRYSFKRKEVRAGEFQVEDVDIPDTTESYKLFCQRMIVGDIKDSICRVPDTPYDDKSYSNIPTTSYELPDGQTLEIGADRFKVPDVMFNPSIVQTIPGMEKYAEMIPSVRGLPHMVMESINKCDVDIRRELYSSILLAGGTSSMQQLKERLEKDLIEESPHSARVKVLASGNTTERRFSVWIGGSILASLGSFQQMWFSKSEYEEHGASYIQRKCP
